Values from PubChem BioAssay AID1159584 (Peter MacCallum Cancer Centre, 2016).
The deposit covers about 18,000 reagents; this is a random part of them. Not all columns of the deposit are shown. Not stated in the record: the amount of reagent, the time to read-out.

- Screen: 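Genes whose loss is lethal only together with E-cadherin loss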 (primary screen)
- Cells: human MCF10A breast epithelial cells, parental and CDH1-null
- Knock-down reagent: siRNA against human genes
- Read-out: 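Cell viability by CellTiter-Glo ATP luminescence, each line scaled to the mean of mock wells across plates, then CDH1-null over parental ratio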
- Scale: CDH1-null / parental viability ratio: higher = CDH1-null cells survive relatively better than parental; CDH1-null viability vs mock: higher = more viable CDH1-null cells
- Units: CDH1-null viability vs mock in fraction of mock

RMDN2 (GeneID 151393) → CDH1-null / parental viability ratio: 1.2; CDH1-null viability vs mock: 0.9
LIMS2 (GeneID 55679) → CDH1-null / parental viability ratio: 1.29; CDH1-null viability vs mock: 0.76
PI4K2B (GeneID 55300) → CDH1-null / parental viability ratio: 1.36; CDH1-null viability vs mock: 1.01
NLRP3 (GeneID 114548) → CDH1-null / parental viability ratio: 1.06; CDH1-null viability vs mock: 0.83
MXD1 (GeneID 4084) → CDH1-null / parental viability ratio: 0.94; CDH1-null viability vs mock: 0.3
MEST (GeneID 4232) → CDH1-null / parental viability ratio: 1.15; CDH1-null viability vs mock: 0.94
STRIP1 (GeneID 85369) → CDH1-null / parental viability ratio: 1.04; CDH1-null viability vs mock: 0.81
TCEAL5 (GeneID 340543) → CDH1-null / parental viability ratio: 0.79; CDH1-null viability vs mock: 0.6
B4GALT6 (GeneID 9331) → CDH1-null / parental viability ratio: 0.93; CDH1-null viability vs mock: 0.78
CCNI2 (GeneID 645121) → CDH1-null / parental viability ratio: 1.06; CDH1-null viability vs mock: 0.87
CASZ1 (GeneID 54897) → CDH1-null / parental viability ratio: 1.01; CDH1-null viability vs mock: 0.87
GABRB3 (GeneID 2562) → CDH1-null / parental viability ratio: 1.28; CDH1-null viability vs mock: 1.05
RLN2 (GeneID 6019) → CDH1-null / parental viability ratio: 0.99; CDH1-null viability vs mock: 0.96
OR5B3 (GeneID 441608) → CDH1-null / parental viability ratio: 1.19; CDH1-null viability vs mock: 1.02
H2AC16 (GeneID 8332) → CDH1-null / parental viability ratio: 1.48; CDH1-null viability vs mock: 0.83
TPST2 (GeneID 8459) → CDH1-null / parental viability ratio: 0.97; CDH1-null viability vs mock: 0.98
POP4 (GeneID 10775) → CDH1-null / parental viability ratio: 0.94; CDH1-null viability vs mock: 0.92
OLAH (GeneID 55301) → CDH1-null / parental viability ratio: 0.94; CDH1-null viability vs mock: 0.62
INSL5 (GeneID 10022) → CDH1-null / parental viability ratio: 1.14; CDH1-null viability vs mock: 1
SCCPDH (GeneID 51097) → CDH1-null / parental viability ratio: 0.75; CDH1-null viability vs mock: 0.68
CHST7 (GeneID 56548) → CDH1-null / parental viability ratio: 1.07; CDH1-null viability vs mock: 0.74
PLXDC2 (GeneID 84898) → CDH1-null / parental viability ratio: 1.05; CDH1-null viability vs mock: 0.84
ZYG11B (GeneID 79699) → CDH1-null / parental viability ratio: 0.89; CDH1-null viability vs mock: 0.76
MAP2K1 (GeneID 5604) → CDH1-null / parental viability ratio: 0.88; CDH1-null viability vs mock: 0.86
SLCO5A1 (GeneID 81796) → CDH1-null / parental viability ratio: 1.28; CDH1-null viability vs mock: 0.69
MYH7B (GeneID 57644) → CDH1-null / parental viability ratio: 1.08; CDH1-null viability vs mock: 0.71
ARSG (GeneID 22901) → CDH1-null / parental viability ratio: 0.98; CDH1-null viability vs mock: 0.4
WDR76 (GeneID 79968) → CDH1-null / parental viability ratio: 0.94; CDH1-null viability vs mock: 0.88
TMEM270 (GeneID 135886) → CDH1-null / parental viability ratio: 1; CDH1-null viability vs mock: 1
NLRP6 (GeneID 171389) → CDH1-null / parental viability ratio: 0.9; CDH1-null viability vs mock: 0.56
SH3KBP1 (GeneID 30011) → CDH1-null / parental viability ratio: 1.07; CDH1-null viability vs mock: 0.64
GZMK (GeneID 3003) → CDH1-null / parental viability ratio: 1.22; CDH1-null viability vs mock: 1
RNASE11 (GeneID 122651) → CDH1-null / parental viability ratio: 1.09; CDH1-null viability vs mock: 0.59
SCHIP1 (GeneID 29970) → CDH1-null / parental viability ratio: 0.81; CDH1-null viability vs mock: 0.52
SIX4 (GeneID 51804) → CDH1-null / parental viability ratio: 0.82; CDH1-null viability vs mock: 0.54

4 entries from above, ordered by “CDH1-null / parental viability ratio”, low to high.
NLRP3 (GeneID 114548) → CDH1-null / parental viability ratio: 1.06; CDH1-null viability vs mock: 0.83
RMDN2 (GeneID 151393) → CDH1-null / parental viability ratio: 1.2; CDH1-null viability vs mock: 0.9
LIMS2 (GeneID 55679) → CDH1-null / parental viability ratio: 1.29; CDH1-null viability vs mock: 0.76
PI4K2B (GeneID 55300) → CDH1-null / parental viability ratio: 1.36; CDH1-null viability vs mock: 1.01
